# Laboratory results as given in patent publication US8017348B1, “Assay for Parkinson's Disease therapeutics” (Elan Pharma International Limited, priority 2005, dated 2011).
# Tests used:
# [1] = tested on: NRDP1; experiment: GFPu assay selectivity screen, cells transfected with NRDP1; type: cell-based; conditions: Hill Slope of NRDP dose response curve
# Description: (§1) The first is the RING finger ligase NRDP1 as a molecule structurally and functionally similar to Parkin. The second is the Cystic Fibrosis Transmembrane Conductance Regulator (CFTR) as a molecule that is a twelve-pass membrane channel protein, and structurally not related to Parkin.
# (§2) Dose response curves were generated by exposing cells to compounds at various concentrations. […] “Hill” refers to the Hill Slope.
# [2] = tested on: CFTR; experiment: GFPu assay selectivity screen, cells transfected with CFTR; type: cell-based; conditions: Hill Slope of CFTR dose response curve
# Description: as §1, §2
Structure (SMILES),NRDP Hill [1],CFTR Hill [2]
"O=c1[nH]cc(F)c(=O)[nH]1 [ELN29019, 5-fluoruracil]",1.8,15
"O=C(O)CCCc1ccc(N(CCCl)CCCl)cc1 [ELN29018, chlorambucil]",0.945,0.312
"O=C1c2c(O)ccc(O)c2C(=O)c2c(NCCNCCO)ccc(NCCNCCO)c21 [ELN476491, mitoxantrone]",9.5,8.178
"Nc1ncn([C@@H]2O[C@H](CO)[C@@H](O)[C@H]2O)c(=O)n1 [ELN476201, 5-azacytidine]",1.1,–
"O=C(N[C@@H](Cc1ccccc1)C(=O)CCl)OCc1ccccc1 [ELN476309, ZPCK]",1.23,1.53
"Cc1ccc(S(=O)(=O)N[C@@H](Cc2ccccc2)C(=O)CCl)cc1 [ELN477056, TPCK]",2.62,–
